Assay results reported in paper PMC9110732.
These are yes or no findings as the source states them, for the method shown. In cells and extracts the contact can be indirect. Some entries that bind do so weakly or less than the wild type.

Target: T1, trans-2,3-enoyl-CoA reductase-like (TECRL) (human (endogenous in hiPSC-CMs)) (UniProt Q5HYJ1)
T1 sequence: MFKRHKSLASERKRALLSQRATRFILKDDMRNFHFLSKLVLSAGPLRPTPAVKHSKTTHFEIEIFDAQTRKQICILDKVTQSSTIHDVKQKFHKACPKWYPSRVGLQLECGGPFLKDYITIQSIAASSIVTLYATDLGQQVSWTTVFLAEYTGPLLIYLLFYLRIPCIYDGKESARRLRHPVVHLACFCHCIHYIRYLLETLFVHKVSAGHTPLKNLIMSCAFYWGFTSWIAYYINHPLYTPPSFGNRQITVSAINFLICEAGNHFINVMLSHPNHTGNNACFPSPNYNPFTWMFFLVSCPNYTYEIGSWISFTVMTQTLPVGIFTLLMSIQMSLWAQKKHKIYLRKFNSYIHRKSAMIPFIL
Test: co-IP; co-immunoprecipitation of TECRL and ATPB in hiPSC-CMs with and without TECRL overexpression, read by blot (n = 3)

“ATP synthase subunit beta, mitochondrial (ATPB) (from UniProt P06576 48-529)” was tested, and the binding was “binds”.
